Test results published in US12668830B2, “Pharmaceutical compositions for prevention and/or treatment of infections and antibacterial-induced dysfunctions” (priority 2018, dated 2026).
At least one structure is not confirmed: it was looked up by name or label, or the drawing left a doubt.

Test system: E. coli MG1655
Assay: Intracellular gentamicin concentration with [3H]-gentamicin
Assay type: cell-based, Escherichia coli
Settings: gentamicin 5 μg/ml plus second drug

With `CCC[C@@H]1C[C@@H](C(=O)N[C@@H]([C@H]2O[C@H](SC)[C@H](O)[C@@H](O)[C@H]2O)[C@H](C)Cl)N(C)C1` [clindamycin] the “Effect on intracellular gentamicin concentration” value was “not modulating”.
